The targets with a hit were mostly taken out for another list; the other results follow. Single values of this set are uncertain. The entries are a selection whose mix differs from that of the whole data set.
Compound: COC(=O)/C=C/c1ccccc1 [methyl cinnamate]
Experiment: log2 ratio of iodoacetamide-alkyne labeling of the cysteine site, DMSO over compound (competition); higher = stronger covalent engagement of the cysteine by the compound, active = 1 or more
Conditions: 500 µM; treatment time 1 h; system: HEK293T cell lysate
Summary of the method: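 For each cysteine, the log2 competition ratio is mean control-channel reporter intensity over mean compound-channel reporter intensity. HEK293T lysate (2 mg/mL) was exposed to vehicle or electrophile (500 µM, 1 h, ambient temperature), labelled with iodoacetamide alkyne (1 h), clicked to sCIP-TMT reagents, digested overnight with trypsin at 37 °C, streptavidin-enriched and analysed by Orbitrap Eclipse LC-MS/MS with FAIMS and FragPipe. Cysteines quantified in only one of three replicates, each with duplicate channels, were excluded.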

Chains of the proteins cited; added tags and fusions are not shown. Lines headed by an entry give the natural chain unless they say otherwise; changes in a name come on top.
UniProt P35579, whole entry, looked up: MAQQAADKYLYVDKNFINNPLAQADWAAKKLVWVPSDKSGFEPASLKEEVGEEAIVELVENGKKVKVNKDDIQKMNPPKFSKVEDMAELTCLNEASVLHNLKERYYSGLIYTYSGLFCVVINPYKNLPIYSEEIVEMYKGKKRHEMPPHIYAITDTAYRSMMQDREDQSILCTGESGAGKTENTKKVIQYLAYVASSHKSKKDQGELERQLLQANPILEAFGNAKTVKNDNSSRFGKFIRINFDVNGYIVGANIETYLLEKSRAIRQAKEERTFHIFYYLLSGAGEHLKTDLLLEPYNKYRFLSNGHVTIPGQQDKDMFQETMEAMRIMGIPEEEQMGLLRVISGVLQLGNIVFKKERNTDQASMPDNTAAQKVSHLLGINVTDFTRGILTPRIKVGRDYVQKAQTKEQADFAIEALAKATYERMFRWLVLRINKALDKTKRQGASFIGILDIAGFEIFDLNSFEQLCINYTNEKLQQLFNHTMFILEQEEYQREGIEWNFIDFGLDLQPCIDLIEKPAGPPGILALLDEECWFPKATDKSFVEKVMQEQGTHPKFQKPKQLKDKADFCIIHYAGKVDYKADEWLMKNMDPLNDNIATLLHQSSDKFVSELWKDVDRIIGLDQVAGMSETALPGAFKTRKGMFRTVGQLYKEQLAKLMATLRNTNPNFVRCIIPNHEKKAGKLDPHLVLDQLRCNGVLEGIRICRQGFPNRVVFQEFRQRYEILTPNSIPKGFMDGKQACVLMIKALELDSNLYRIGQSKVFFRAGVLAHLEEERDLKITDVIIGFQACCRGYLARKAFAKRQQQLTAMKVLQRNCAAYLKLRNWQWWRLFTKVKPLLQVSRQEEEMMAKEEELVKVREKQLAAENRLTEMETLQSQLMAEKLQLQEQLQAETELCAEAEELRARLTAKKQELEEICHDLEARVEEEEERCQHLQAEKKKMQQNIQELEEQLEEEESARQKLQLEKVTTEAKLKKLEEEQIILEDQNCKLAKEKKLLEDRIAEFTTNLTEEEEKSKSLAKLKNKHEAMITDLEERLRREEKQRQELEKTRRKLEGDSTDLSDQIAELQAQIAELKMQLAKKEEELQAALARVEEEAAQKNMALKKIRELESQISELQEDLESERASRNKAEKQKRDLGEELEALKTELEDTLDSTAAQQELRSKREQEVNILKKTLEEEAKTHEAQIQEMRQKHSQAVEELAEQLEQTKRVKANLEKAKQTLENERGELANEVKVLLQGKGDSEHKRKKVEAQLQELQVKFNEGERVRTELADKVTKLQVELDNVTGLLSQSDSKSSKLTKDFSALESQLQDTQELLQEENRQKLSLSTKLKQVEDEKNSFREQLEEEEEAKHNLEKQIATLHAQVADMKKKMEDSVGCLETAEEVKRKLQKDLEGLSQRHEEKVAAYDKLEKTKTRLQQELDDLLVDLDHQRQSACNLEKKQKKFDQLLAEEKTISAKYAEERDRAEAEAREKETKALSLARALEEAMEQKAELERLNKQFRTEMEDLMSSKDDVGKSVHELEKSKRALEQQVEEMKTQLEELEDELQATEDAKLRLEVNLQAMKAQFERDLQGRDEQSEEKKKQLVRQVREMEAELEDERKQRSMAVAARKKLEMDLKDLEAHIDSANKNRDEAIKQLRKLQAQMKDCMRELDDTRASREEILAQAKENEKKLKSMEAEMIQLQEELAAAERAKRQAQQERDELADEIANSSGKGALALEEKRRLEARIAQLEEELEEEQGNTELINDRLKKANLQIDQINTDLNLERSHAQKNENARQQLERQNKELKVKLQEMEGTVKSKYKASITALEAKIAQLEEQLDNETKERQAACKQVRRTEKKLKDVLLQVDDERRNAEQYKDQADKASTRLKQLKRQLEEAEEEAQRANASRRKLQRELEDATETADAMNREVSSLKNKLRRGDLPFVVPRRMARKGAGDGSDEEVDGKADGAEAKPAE
UniProt P38606, whole entry: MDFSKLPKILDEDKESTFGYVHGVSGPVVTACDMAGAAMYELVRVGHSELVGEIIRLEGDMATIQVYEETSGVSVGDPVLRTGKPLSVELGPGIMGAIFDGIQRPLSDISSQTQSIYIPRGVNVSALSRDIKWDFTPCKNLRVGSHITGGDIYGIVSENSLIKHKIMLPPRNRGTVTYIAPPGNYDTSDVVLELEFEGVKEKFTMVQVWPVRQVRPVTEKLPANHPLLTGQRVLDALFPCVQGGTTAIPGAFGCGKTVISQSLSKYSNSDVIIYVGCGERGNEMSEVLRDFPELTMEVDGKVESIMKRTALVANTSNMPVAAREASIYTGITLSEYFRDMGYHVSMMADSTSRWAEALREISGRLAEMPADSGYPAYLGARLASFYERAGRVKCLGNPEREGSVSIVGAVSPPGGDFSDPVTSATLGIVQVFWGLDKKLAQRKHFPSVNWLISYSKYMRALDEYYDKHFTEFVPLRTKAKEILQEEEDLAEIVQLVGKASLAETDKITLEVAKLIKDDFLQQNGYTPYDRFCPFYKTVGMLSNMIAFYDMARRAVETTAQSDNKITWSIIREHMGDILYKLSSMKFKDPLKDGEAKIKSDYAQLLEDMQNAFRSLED
UniProt P31943: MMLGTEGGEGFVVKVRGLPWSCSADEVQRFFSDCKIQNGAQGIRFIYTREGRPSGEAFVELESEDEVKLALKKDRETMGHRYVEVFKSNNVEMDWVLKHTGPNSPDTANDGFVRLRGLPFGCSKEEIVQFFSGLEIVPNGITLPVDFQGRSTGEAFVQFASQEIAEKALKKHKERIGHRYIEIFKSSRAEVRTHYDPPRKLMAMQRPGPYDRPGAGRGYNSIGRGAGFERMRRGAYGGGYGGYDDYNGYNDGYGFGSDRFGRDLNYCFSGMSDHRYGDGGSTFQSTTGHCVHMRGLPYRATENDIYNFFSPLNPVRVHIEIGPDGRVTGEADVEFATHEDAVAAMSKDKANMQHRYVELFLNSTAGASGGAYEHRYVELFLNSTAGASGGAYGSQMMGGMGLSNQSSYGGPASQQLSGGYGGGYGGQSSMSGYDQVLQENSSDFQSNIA
UniProt P37268: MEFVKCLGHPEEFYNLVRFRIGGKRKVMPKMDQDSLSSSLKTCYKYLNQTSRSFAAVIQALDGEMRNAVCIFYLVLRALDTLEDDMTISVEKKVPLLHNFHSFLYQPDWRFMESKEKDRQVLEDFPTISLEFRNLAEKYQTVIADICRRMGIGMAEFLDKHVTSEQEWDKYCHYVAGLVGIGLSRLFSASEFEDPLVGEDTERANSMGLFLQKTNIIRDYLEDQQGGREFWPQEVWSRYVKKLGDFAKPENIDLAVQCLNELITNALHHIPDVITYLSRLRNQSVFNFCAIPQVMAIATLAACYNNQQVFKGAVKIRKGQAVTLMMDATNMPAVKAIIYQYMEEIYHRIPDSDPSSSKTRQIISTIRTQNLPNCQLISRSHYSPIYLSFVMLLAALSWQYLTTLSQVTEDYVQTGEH
UniProt P40222: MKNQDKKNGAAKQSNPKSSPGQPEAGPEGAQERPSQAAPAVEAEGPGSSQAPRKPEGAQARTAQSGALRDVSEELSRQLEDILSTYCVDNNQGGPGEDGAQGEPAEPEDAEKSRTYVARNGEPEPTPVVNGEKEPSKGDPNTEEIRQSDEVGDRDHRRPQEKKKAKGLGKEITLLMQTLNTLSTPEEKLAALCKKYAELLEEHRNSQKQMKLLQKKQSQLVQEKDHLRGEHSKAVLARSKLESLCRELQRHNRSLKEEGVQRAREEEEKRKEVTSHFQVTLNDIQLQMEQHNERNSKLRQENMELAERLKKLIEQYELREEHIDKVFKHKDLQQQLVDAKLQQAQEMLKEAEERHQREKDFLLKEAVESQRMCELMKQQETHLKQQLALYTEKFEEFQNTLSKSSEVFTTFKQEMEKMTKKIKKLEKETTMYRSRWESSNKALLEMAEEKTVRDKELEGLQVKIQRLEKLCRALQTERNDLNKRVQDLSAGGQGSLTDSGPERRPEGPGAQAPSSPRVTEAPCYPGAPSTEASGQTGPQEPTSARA
UniProt P34896: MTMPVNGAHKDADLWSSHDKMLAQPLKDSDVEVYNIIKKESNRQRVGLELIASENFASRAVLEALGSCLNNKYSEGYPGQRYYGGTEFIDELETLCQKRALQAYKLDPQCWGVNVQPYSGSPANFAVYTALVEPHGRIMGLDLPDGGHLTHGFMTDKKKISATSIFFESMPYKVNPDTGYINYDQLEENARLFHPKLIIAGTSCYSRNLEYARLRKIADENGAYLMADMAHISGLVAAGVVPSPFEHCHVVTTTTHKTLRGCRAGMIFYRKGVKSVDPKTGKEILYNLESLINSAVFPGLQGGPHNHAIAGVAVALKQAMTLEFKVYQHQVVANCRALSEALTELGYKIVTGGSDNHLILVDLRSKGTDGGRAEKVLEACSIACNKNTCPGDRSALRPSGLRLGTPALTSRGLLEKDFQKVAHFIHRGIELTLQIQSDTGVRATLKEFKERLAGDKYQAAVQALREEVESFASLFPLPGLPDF
UniProt P39748, whole entry, looked up: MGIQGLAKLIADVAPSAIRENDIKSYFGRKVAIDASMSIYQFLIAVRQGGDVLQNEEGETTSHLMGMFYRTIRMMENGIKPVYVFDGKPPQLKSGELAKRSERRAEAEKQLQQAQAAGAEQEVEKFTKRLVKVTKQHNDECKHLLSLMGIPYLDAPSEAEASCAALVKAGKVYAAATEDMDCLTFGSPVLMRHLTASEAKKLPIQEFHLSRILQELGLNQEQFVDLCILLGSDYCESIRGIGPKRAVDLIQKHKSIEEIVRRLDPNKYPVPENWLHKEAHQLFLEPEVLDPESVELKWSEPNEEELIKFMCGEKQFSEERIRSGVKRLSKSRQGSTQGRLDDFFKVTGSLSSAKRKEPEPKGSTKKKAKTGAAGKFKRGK
UniProt P35610: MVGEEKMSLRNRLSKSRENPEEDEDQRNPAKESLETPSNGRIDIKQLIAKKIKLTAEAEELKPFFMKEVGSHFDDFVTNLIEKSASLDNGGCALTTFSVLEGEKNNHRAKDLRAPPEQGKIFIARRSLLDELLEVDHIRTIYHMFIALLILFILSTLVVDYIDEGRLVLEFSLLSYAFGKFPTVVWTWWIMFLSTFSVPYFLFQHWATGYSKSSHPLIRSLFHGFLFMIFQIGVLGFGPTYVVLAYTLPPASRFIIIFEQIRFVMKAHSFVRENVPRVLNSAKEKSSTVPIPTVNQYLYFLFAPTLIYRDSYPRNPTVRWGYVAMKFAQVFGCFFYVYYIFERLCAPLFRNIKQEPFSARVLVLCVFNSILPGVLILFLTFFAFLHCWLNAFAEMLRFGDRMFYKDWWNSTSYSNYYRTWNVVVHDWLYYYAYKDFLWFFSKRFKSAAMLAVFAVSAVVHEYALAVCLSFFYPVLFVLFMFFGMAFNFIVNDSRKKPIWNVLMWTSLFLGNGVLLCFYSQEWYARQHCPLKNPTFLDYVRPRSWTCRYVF
UniProt P38646: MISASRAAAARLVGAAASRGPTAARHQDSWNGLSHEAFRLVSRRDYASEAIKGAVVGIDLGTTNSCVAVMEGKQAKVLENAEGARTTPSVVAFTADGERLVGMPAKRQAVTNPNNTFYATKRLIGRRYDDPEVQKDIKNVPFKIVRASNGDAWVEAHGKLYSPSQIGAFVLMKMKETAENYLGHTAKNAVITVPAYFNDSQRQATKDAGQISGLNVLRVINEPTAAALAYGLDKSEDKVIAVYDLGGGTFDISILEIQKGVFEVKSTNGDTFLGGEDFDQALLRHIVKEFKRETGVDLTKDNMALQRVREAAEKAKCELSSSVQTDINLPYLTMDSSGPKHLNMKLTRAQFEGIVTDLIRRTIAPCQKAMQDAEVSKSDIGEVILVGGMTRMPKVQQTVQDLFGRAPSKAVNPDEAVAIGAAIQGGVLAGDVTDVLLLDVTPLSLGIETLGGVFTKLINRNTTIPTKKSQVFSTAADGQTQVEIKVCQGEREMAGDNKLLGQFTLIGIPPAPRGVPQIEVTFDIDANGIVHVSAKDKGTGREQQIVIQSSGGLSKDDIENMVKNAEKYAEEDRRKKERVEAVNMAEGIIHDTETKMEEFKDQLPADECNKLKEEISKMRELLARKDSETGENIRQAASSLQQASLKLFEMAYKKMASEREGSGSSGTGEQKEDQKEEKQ
UniProt P36551: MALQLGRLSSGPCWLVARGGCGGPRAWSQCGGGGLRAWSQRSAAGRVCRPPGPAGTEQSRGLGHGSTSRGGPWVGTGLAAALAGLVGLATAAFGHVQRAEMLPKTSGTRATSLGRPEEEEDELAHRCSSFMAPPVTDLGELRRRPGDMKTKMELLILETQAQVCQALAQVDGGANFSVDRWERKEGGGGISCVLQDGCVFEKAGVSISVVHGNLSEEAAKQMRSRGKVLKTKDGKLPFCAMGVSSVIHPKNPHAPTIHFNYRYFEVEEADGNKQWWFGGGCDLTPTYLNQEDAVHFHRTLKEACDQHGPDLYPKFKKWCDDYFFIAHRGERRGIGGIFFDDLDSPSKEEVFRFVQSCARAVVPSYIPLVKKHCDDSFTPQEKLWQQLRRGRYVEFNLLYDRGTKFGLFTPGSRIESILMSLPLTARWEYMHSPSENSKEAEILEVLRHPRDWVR

log2 ratio of iodoacetamide-alkyne labeling, inactive:
UniProt P41214_C271 0.0502
UniProt P41743_C595 0.0809
RPL3 C114 (UniProt P39023) 0.119
DCTD C83 (UniProt P32321) 0.0983
GDI1 C302 (UniProt P31150) -0.056
TTK C395 (UniProt P33981) 0.275
MATR3 C806 (UniProt P43243) -0.0413
RPL9 C134 (UniProt P32969) -0.0347
UniProt P40855_C128 0.352
HADHA C747 (UniProt P40939) 0.323
MYH9 C896 (UniProt P35579) -0.0889
MYH9 C1437 (UniProt P35579) 0.195
ATP6V1A C138 (UniProt P38606) 0.175
HNRNPH1 C34 (UniProt P31943) 0.13
RFC1 C607 (UniProt P35251) 0.233
HMGCL C323 (UniProt P35914) 0.257
FDFT1 C6 (UniProt P37268) 0.226
LRPPRC C1043 (UniProt P42704) -0.0107
GLRX C8 (UniProt P35754) 0.329
NCAPD3 C330 (UniProt P42695) 0.254
MYH9 C988 (UniProt P35579) 0.281
HNRNPH1 C290 (UniProt P31943) -0.177
EIF1 C94 (UniProt P41567) 0.0774
PPIF C104 (UniProt P30405) 0.24
TXLNA C87 (UniProt P40222) 0.217
MCM5 C219 (UniProt P33992) 0.22
SHMT1 C68 (UniProt P34896) 0.05
FEN1 C163 (UniProt P39748) 0.67
UQCRC1 C154 (UniProt P31930) 0.134
MAT2A C56 (UniProt P31153) 0.542
RPL4 C3 (UniProt P36578) 0.251
STAT1 C174 (UniProt P42224) 0.0285
SOAT1 C92 (UniProt P35610) 0.277
HSPA9 C66 (UniProt P38646) 0.148
TAGLN2 C38 (UniProt P37802) -0.0426
ANP32A C123 (UniProt P39687) 0.149
CPOX C127 (UniProt P36551) 0.056

Taken from the listing for reference:
log2 ratio of iodoacetamide-alkyne labeling, inactive:
SHMT1 C68 (UniProt P34896) 0.05
FEN1 C163 (UniProt P39748) 0.67
UQCRC1 C154 (UniProt P31930) 0.134
MAT2A C56 (UniProt P31153) 0.542
RPL4 C3 (UniProt P36578) 0.251
STAT1 C174 (UniProt P42224) 0.0285
SOAT1 C92 (UniProt P35610) 0.277
HSPA9 C66 (UniProt P38646) 0.148
